# No constants are given. Whether binding was seen depends on the method and setting.
# B1: TAF1 C-terminal region isolated in the yeast two-hybrid screen (domain or fragment, UniProt Q8LRK9 1278-1919)
# chain: LCRLLMQDEDQKKKKKKMKGVGEGMGSYPPPRPNIALQSGEPVRKANAMDKKPIAIQPDASFLVNESTIKDNRNVDSIIKTPKGKQVKENSNSLGQLKKVKILNENLKVFKEKKSARENFVCGACGQHGHMRTNKHCPRYRENTESQPEGIDMDKSAGKPSSSEPSGLPKLKPIKNSKAAPKSAMKTSVDEALKGDKLSSKTGGLPLKFRYGIPAGDLSDKPVSEAPGSSEQAVVSDIDTGIKSTSKISKLKISSKAKPKESKGESERRSHSLMPTFSRERGESESHKPSVSGQPLSSTERNQAASSRHTISIPRPSLSMDTDQAESRRPHLVIRPPTEREQPQKKLVIKRSKEMNDHDMSSLEESPRFESRKTKRMAELAGFQRQQSFRLSENSLERRPKEDRVWWEEEEISTGRHREVRARRDYDDMSVSEEPNEIAEIRRYEEVIRSEREEEERQKAKKKKKKKKLQPEIVEGYLEDYPPRKNDRRLSERGRNVRSRYVSDFERDGAEYAPQPKRRKKGEVGLANILERIVDTLRLKEEVSRLFLKPVSKKEAPDYLDIVENPMDLSTIRDKVRKIEYRNREQFRHDVWQIKYNAHLYNDGRNPGIPPLADQLLEICDYLLDDYEDQLKEAEKGIDPND
# Target: MRE11 deletion construct, N-terminal region (Arabidopsis thaliana)
# Assay: two-hybrid; direct test after plasmid isolation and re-transformation into the yeast reporter strain AH109; MRE11 full length and deletion constructs against the TAF1 C-terminal region
binder,measurement,value
B1,binding,no binding
